Legend:
[1] = tested on: Tunel positive cells in brain tissue; assay: Apoptosis level in brain tissue by TUNEL assay; format: in vivo, ICR mice; conditions: donepezil group, no significant change
Procedure: (§1) Subsequently, the syringe was allowed to stand for 5 minutes and then removed.
Then, an apoptosis level was checked through TUNEL assay. The TUNEL assay is a method to search for cells that have undergone apoptosis by attaching a fluorescent substance to ends of DNA fragments cleaved due to apoptosis. The extracted brain tissue of the experimental animal is fixed by perfusion with 4% formaldehyde. Then, the brain tissue was embedded in paraffin and sectioned to a thickness of 5 μm. The brain tissue fixed on a slide was subjected to a TUNEL assay kit so that the end portions where DNA having undergone apoptosis had been fragmented are fluorescence-stained, and checked by a fluorescence microscope.

[2] = tested on: acetylcholine in brain tissues; assay: Acetylcholine content in brain tissue; format: in vivo, ICR mice; conditions: donepezil group
Procedure: as §1
Measurement of acetylcholine in brain tissues was performed based on response of o-acyl derivatives with alkaline hydroxylamine. Specifically, 50 μl of brain tissue was taken and 50 μl of 1% hydroxylamine (Sigma, USA) was added and mixed. […] Finally, 500 μl of FeCl3 (10% in 0.1 N HCl) was added to measure an acetylcholine level (umole/mg protein), and then the absorbance was measured at 530 nm.

`COc1cc2c(cc1OC)C(=O)C(CC1CCN(Cc3ccccc3)CC1)C2` (centres unmarked) [donepezil, reference compound] was tested, and the “number of Tunel positive cells” value [1] was 113.83±14.77 and the acetylcholine content [2] was 23.19 μmole/mg protein.
